{"source": "patent US7220576B2", "about": "“Methods and compositions for protein expression and purification” (Lifesensors, Inc., priority 2002, dated 2007)", "tested_on": "E. coli", "test": "Expression level of UBL-GFP and SUMO fusion proteins in E. coli (SDS-PAGE)", "type": "cell-based", "conditions": "E. coli expression of UBLs; all fusions have Met N-termini"}
{"molecule": "Hub1-GFP (protein) MGHHHHHHGSDSEVNQEAKPEVKPEVKPETHINLKVSDGSSEIFFKIKKTTPLRRLMEAFAKRQGKEMDSLRFLYDGIRIQADQAPEDLDMEDNDIIEAHREQIGG", "values": [{"measurement": "Enhancement of protein expression by fusion", "value": 2, "unit": "fold"}]}
